The target in assay [1] is RBP‐TruncII_(N‐Strep) (second-generation C-terminal half of T. maritima RBP, residues 156–310) (Thermotoga maritima) (UniProt Q9X053). Put plainly: SEC-MALS; single purified proteins, and RBP‐N and RBP‐Trunc purified one by one and mixed in an equimolar ratio; Superdex 75 Increase 10/300 GL, 10 mM sodium phosphate, 50 mM sodium chloride, 0.02% sodium azide, pH 7.8, room temperature, 0.8 mL min^-1; both purified. A general note: SEC sorts molecules by how far they enter the pores of the column.

In assay [2] the target is RBP‐TruncII_(N‐His) (second-generation C-terminal half of T. maritima RBP, residues 156–310, His6 tag) (Thermotoga maritima) (UniProt Q9X053). The assay is described as above.

No constants are given. Whether binding was seen depends on the method and setting. For some assays here: Tags and fused reporters may be left off the sequences shown.

B1: RBP‐TruncII_(N‐Strep) (second-generation C-terminal half of T. maritima RBP, residues 156–310) (domain or fragment, UniProt Q9X053 156-310)
chain: DAKEIPYAELLGILSAQPTWDRSNGFHSVVDQYPEFKMVAQQSAEFDRDTAYKVTEQILQAHPEIKAIWCGNDAMALGAMKACEAAGRTDIYIFGFDGAEDVINAIKEGKQIVATIMQFPKLMARLAVEWADQYLRGERSFPEIVPVTVELVTRE
On to B1, for which, in assay [1], the binding entry is “no binding”.

B2: RBP‐TruncII_(N‐His) (second-generation C-terminal half of T. maritima RBP, residues 156–310, His6 tag) (domain or fragment, UniProt Q9X053 156-310)
chain: DAKEIPYAELLGILSAQPTWDRSNGFHSVVDQYPEFKMVAQQSAEFDRDTAYKVTEQILQAHPEIKAIWCGNDAMALGAMKACEAAGRTDIYIFGFDGAEDVINAIKEGKQIVATIMQFPKLMARLAVEWADQYLRGERSFPEIVPVTVELVTRE
Consider B2, for which, in assay [2], the binding result was “no binding”.

Values taken from paper PMC10601554 (Protein Science : A Publication of the Protein Society, 2023).
